The results in this text go back to article PMC10250186.

By UniProt entry, the sequences of proteins in these tests, tags left out.
UniProt Q15046: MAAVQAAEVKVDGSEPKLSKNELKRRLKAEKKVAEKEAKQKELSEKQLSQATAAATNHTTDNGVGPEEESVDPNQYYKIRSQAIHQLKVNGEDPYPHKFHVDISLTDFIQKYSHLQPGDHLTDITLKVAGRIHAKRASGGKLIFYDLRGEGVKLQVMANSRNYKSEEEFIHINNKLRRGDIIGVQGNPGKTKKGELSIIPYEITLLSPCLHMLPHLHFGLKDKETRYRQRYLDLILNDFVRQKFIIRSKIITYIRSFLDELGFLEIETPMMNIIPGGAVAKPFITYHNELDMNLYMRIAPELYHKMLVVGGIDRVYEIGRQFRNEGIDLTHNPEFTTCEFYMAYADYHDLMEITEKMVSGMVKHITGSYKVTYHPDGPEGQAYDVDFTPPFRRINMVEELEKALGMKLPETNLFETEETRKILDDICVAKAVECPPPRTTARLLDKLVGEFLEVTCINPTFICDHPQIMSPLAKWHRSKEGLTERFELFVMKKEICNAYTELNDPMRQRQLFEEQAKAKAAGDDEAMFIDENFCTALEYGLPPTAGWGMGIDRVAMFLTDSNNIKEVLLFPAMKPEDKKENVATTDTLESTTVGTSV

Assay [1] has as its target glutamyl-prolyl-tRNA synthetase (EPRS1) (human (endogenous in Calu-3 and A549-hACE2)) (UniProt P07814). Nature of the assay: SEC. Background: Size exclusion chromatography separates by hydrodynamic size, large species first.
Assay [2] has as its target T1, glutamyl-prolyl-tRNA synthetase (EPRS1) (human (endogenous in Calu-3 and A549-hACE2)), P07814.
T1 chain: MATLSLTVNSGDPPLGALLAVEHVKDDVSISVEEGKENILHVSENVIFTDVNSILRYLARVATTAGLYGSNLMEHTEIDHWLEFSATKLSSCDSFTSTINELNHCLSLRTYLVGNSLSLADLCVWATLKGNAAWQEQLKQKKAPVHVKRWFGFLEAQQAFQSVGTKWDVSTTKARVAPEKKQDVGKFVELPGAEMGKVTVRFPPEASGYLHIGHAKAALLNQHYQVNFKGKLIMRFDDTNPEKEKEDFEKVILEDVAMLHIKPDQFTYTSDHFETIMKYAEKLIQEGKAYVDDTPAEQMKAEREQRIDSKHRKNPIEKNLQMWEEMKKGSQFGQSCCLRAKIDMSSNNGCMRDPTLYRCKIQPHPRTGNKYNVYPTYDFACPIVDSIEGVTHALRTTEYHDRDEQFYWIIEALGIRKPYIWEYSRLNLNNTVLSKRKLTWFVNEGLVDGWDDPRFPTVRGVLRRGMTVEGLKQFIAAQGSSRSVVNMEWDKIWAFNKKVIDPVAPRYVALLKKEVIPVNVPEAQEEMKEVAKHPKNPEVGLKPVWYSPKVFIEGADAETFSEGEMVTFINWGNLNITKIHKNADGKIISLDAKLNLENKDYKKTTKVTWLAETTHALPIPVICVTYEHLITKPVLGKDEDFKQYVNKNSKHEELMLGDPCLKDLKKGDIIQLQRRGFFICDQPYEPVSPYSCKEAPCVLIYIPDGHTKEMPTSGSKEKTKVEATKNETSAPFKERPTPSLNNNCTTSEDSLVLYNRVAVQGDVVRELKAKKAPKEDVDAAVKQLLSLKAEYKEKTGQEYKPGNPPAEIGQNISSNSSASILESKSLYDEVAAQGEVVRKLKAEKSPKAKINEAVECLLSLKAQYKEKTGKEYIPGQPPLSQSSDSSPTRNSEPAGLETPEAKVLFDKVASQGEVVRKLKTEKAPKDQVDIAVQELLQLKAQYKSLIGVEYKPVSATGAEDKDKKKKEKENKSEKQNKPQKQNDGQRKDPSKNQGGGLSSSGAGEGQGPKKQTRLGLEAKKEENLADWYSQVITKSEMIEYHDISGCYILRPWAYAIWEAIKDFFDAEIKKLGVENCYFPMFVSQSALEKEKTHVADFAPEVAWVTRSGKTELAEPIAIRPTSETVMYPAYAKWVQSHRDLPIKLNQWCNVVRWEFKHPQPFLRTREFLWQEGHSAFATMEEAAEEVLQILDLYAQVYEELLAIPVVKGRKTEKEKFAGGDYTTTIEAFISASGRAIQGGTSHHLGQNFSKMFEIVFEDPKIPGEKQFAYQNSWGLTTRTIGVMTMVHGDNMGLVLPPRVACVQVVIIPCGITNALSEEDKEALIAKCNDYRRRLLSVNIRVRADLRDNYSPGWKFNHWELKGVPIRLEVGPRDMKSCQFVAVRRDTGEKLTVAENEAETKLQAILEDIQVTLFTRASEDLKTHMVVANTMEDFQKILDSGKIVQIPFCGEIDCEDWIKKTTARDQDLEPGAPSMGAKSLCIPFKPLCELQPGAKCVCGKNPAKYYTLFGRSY
Nature of the assay: SEC. The settings on record: remark: other sources report otherwise.

No constants are given. Whether binding was seen depends on the method and setting. Some entries that bind do so weakly or less than the wild type.

For KARS1 (from UniProt Q15046 1-597), the binding entry in assay [1] was “binds”.

B1: RARS1, P54136 1-660 (protein)
chain: MDVLVSECSARLLQQEEEIKSLTAEIDRLKNCGCLGASPNLEQLQEENLKLKYRLNILRKSLQAERNKPTKNMINIISRLQEVFGHAIKAAYPDLENPPLLVTPSQQAKFGDYQCNSAMGISQMLKTKEQKVNPREIAENITKHLPDNECIEKVEIAGPGFINVHLRKDFVSEQLTSLLVNGVQLPALGENKKVIVDFSSPNIAKEMHVGHLRSTIIGESISRLFEFAGYDVLRLNHVGDWGTQFGMLIAHLQDKFPDYLTVSPPIGDLQVFYKESKKRFDTEEEFKKRAYQCVVLLQGKNPDITKAWKLICDVSRQELNKIYDALDVSLIERGESFYQDRMNDIVKEFEDRGFVQVDDGRKIVFVPGCSIPLTIVKSDGGYTYDTSDLAAIKQRLFEEKADMIIYVVDNGQSVHFQTIFAAAQMIGWYDPKVTRVFHAGFGVVLGEDKKKFKTRSGETVRLMDLLGEGLKRSMDKLKEKERDKVLTAEELNAAQTSVAYGCIKYADLSHNRLNDYIFSFDKMLDDRGNTAAYLLYAFTRIRSIARLANIDEEMLQKAARETKILLDHEKEWKLGRCILRFPEILQKILDDLFLHTLCDYIYELATAFTEFYDSCYCVEKDRQTGKILKVNMWRMLLCEAVAAVMAKGFDILGIKPVQRM
Consider B1, for which the binding entry in assay [2] is listed as “binds”.

B2: MARS1, P56192 1-900 (protein)
chain: MRLFVSDGVPGCLPVLAAAGRARGRAEVLISTVGPEDCVVPFLTRPKVPVLQLDSGNYLFSTSAICRYFFLLSGWEQDDLTNQWLEWEATELQPALSAALYYLVVQGKKGEDVLGSVRRALTHIDHSLSRQNCPFLAGETESLADIVLWGALYPLLQDPAYLPEELSALHSWFQTLSTQEPCQRAAETVLKQQGVLALRPYLQKQPQPSPAEGRAVTNEPEEEELATLSEEEIAMAVTAWEKGLESLPPLRPQQNPVLPVAGERNVLITSALPYVNNVPHLGNIIGCVLSADVFARYSRLRQWNTLYLCGTDEYGTATETKALEEGLTPQEICDKYHIIHADIYRWFNISFDIFGRTTTPQQTKITQDIFQQLLKRGFVLQDTVEQLRCEHCARFLADRFVEGVCPFCGYEEARGDQCDKCGKLINAVELKKPQCKVCRSCPVVQSSQHLFLDLPKLEKRLEEWLGRTLPGSDWTPNAQFITRSWLRDGLKPRCITRDLKWGTPVPLEGFEDKVFYVWFDATIGYLSITANYTDQWERWWKNPEQVDLYQFMAKDNVPFHSLVFPCSALGAEDNYTLVSHLIATEYLNYEDGKFSKSRGVGVFGDMAQDTGIPADIWRFYLLYIRPEGQDSAFSWTDLLLKNNSELLNNLGNFINRAGMFVSKFFGGYVPEMVLTPDDQRLLAHVTLELQHYHQLLEKVRIRDALRSILTISRHGNQYIQVNEPWKRIKGSEADRQRAGTVTGLAVNIAALLSVMLQPYMPTVSATIQAQLQLPPPACSILLTNFLCTLPAGHQIGTVSPLFQKLENDQIESLRQRFGGGQAKTSPKPAVVETVTTAKPQQIQALMDEVTKQGNIVRELKAQKADKNEVAAEVAKLLDLKKQLAVAEGKPPEAPKGKKKK
Turning to B2, the binding entry in assay [2] was “binds”.
